Source: paper PMC3280276 (PLoS ONE, 2012)
No constants are given. Whether binding was seen depends on the method and setting. Sequences can lack the tags named with a protein.

Target: T1, HiCaM fusion construct displaying the C-terminal 11 amino acids of P1 and P2
T1 sequence: SDDDMGFGLFD
Assay: pull-down; both purified

B1: alpha-sarcin (enzyme, UniProt P00655 28-177)
chain: AVTWTCLNDQKNPKTNKYETKRLLYNQNKAESNSHHAPLSDGKTGSSYPHWFTNGYDGDGKLPKGRTPIKFGKSDCDRPPKHSKDGNGKTDHYLLEFPTFPDGHDYKFDSKKPKENPGPARVIYTYPNKVFCGIIAHTKENQGELKLCSH
  binding: no binding
